Reference: US9603829B2, “HSP90 inhibitors with modified toxicity” (THE REGENTS OF THE UNIVERSITY OF COLORADO, a body corporate, priority 2011, dated 2017)
Some of these results come from one statement about several compounds together. At least one structure is not confirmed: it was looked up by name or label, or the drawing left a doubt.

Test: Glutathione conjugation of benzoquinone ansamycins (HPLC, LC-MS)
Assay type: in vitro ADME
Conditions: 50 μM BA, 5 mM glutathione, pH 7.4, room temperature, after 24 h
Description: BA-GSH conjugate formation was analyzed by HPLC at 270 nm and further confirmed by LC-MS.

Compound: C=CCNC1=C2C[C@@H](C)C[C@H](OC)[C@H](O)[C@@H](C)/C=C(\C)[C@H](OC(N)=O)[C@@H](OC)/C=C\C=C(/C)C(=O)NC(=CC1=O)C2=O [17AAG, 17-demethoxy-17-(2-propenylamino)-geldanamycin, reference compound]
- fraction conjugated with glutathione: less than 15%
